Measured values: US20190194358A1
These are yes or no findings as the source states them, for the method shown. Binding calls can cover weak binding; strength is not graded here.

Key:
[1] = molecular target: HBV-associated factor (human); assay: Invitrogen ProtoArray Human Protein Microarray v4.0; biotinylated synbody, fluorescently labelled streptavidin; fluorescence intensity
[2] = molecular target: Meckel syndrome, type I (human); assay: as above
[3] = molecular target: Hemochromotosis type 2 (human); assay: as above
[4] = molecular target: Castor, zinc-finger protein 1 (human); assay: as above
[5] = molecular target: Ig kappa light chain (human); assay: human protein microarray (Protoarray), biotinylated synbody and labelled streptavidin

Measured: binding

B1: SYN21-22 (designed binder)
peptide 1: QYHHFMNLKRQGRAQAYGSG
peptide 2: HAYKGPGDMRRFNHSGMGSG
modifications: C-terminus joined to an amine of the branching lysine
binds: all assays above
